Data reported in paper PMC12254316.
These are yes or no findings as the source states them, for the method shown. Binding seen in cells or lysates may run through a third protein. Some results given as binding are weak or reduced against the parent protein; the word gives no strength. For some assays here: Sequences can lack the tags named with a protein. Each block holds one binder with its values, some of them ahead of it.

Sequences of proteins named here, by UniProt entry; tags and fusion partners are left off.
UniProt Q09472: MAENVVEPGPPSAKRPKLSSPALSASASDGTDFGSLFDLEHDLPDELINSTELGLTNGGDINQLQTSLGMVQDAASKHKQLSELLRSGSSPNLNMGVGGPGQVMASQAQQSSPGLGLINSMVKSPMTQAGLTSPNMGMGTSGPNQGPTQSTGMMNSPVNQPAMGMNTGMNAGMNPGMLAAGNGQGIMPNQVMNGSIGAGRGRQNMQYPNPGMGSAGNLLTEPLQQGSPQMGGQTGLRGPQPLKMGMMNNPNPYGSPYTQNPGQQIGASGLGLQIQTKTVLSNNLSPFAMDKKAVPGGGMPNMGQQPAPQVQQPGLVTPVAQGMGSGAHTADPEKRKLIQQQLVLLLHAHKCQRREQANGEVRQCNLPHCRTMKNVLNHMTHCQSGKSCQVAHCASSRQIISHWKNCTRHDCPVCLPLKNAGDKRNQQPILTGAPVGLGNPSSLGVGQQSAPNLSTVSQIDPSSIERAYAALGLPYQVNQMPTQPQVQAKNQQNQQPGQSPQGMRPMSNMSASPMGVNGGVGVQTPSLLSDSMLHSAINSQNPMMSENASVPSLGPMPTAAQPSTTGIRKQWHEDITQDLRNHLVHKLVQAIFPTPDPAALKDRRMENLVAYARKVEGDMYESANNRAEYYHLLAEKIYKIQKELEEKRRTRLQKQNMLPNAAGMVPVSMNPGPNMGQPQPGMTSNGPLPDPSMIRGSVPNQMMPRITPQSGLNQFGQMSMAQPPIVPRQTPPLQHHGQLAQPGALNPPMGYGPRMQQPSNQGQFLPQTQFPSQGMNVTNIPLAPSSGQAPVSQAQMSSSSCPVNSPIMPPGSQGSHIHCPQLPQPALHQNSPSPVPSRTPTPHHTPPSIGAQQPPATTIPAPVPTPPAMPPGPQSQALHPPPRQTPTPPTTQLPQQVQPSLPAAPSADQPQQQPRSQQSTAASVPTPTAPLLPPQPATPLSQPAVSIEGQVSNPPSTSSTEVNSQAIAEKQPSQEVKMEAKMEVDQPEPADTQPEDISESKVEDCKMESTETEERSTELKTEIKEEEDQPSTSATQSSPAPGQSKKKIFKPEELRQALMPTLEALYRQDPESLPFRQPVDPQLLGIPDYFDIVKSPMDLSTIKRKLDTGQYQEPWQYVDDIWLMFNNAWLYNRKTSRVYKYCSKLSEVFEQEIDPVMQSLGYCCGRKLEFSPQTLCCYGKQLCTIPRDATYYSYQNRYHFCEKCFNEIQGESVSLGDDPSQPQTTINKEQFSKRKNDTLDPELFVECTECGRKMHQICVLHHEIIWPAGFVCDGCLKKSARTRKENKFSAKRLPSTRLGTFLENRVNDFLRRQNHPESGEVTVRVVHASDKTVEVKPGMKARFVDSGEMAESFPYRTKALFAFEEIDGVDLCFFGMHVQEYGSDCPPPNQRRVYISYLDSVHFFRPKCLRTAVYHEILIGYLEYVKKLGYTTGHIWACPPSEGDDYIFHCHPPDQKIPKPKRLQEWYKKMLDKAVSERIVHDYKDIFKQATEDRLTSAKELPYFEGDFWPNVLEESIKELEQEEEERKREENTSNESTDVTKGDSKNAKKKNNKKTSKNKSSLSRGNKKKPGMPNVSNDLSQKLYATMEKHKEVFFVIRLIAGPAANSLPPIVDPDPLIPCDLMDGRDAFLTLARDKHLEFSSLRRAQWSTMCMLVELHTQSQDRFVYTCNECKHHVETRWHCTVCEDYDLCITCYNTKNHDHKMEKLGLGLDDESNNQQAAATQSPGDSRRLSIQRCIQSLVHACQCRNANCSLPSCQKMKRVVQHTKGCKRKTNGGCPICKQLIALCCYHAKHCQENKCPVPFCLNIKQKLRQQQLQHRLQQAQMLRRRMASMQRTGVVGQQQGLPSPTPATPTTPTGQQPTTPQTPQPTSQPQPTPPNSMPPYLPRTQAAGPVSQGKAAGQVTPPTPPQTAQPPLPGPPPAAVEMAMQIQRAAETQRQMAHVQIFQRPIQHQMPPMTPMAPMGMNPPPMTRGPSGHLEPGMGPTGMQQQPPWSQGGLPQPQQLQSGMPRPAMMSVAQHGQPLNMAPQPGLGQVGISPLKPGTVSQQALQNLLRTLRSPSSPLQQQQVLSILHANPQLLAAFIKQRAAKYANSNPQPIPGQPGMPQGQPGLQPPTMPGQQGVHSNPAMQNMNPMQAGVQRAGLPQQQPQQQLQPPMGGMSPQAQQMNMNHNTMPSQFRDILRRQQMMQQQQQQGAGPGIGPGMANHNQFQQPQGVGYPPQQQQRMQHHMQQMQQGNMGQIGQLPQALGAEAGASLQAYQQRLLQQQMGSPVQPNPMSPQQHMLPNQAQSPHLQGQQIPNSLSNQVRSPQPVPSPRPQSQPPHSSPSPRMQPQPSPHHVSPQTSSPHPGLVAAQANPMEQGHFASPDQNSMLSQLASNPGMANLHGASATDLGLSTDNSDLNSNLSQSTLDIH
UniProt B2RWS6: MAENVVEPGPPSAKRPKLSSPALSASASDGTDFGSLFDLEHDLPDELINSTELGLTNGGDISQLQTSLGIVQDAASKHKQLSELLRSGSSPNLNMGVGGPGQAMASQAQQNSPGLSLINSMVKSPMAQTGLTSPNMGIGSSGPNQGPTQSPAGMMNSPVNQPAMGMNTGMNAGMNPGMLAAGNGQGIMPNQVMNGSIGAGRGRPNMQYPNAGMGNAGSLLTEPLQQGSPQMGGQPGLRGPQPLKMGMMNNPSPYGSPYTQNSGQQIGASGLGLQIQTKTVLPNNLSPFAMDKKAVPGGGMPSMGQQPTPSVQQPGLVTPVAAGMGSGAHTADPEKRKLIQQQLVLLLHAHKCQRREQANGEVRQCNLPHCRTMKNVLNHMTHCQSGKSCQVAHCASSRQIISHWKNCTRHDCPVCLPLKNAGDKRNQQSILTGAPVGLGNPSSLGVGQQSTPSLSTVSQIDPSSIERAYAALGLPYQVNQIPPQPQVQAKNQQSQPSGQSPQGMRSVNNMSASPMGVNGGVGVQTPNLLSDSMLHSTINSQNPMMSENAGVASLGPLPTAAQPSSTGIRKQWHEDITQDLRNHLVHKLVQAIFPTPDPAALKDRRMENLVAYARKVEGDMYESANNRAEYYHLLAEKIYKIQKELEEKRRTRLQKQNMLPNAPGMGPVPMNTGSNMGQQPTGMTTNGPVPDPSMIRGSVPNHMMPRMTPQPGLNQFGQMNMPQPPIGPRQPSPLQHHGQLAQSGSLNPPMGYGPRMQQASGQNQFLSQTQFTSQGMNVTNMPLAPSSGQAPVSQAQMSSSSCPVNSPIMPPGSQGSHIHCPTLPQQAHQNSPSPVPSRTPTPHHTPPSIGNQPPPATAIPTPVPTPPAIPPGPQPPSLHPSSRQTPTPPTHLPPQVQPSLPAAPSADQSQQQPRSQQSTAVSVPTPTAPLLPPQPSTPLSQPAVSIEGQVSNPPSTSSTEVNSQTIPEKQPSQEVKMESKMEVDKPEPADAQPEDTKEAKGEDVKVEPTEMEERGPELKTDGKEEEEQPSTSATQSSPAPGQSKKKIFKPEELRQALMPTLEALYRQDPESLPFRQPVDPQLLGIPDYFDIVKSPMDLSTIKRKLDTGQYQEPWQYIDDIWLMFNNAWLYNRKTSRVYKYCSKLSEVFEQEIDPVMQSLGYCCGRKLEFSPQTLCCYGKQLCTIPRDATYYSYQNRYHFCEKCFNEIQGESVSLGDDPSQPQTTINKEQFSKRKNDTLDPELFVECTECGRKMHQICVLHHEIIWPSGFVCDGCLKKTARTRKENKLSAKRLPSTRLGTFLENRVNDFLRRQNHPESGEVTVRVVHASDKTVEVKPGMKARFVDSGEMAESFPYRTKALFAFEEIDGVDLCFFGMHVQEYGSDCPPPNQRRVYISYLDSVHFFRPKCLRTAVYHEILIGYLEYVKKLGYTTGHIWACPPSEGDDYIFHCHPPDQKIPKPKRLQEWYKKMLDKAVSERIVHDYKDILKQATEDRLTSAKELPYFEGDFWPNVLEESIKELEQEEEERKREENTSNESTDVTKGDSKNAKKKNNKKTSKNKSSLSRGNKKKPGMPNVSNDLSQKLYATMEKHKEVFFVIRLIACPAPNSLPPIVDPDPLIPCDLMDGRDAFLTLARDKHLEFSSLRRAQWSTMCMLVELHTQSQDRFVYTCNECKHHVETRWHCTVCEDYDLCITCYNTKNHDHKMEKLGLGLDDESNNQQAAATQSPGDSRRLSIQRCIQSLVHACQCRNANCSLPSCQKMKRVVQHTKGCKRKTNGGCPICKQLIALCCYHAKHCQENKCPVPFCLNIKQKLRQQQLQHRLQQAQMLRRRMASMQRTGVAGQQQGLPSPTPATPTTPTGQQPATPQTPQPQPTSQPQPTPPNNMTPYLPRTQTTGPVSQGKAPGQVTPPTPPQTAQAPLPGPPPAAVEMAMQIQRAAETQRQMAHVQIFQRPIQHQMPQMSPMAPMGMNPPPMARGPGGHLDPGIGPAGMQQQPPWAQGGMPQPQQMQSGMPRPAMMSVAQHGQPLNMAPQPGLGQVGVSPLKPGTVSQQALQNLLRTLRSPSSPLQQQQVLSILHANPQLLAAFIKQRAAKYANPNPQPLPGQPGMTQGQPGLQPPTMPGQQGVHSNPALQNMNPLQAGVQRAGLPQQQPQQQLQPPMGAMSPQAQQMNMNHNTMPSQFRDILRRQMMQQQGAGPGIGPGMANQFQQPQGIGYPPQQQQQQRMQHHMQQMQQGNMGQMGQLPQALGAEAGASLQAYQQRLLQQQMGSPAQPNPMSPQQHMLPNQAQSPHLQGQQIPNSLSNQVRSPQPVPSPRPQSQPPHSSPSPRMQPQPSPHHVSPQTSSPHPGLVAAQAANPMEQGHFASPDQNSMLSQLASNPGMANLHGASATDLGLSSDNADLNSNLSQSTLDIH

Key:
[1] = target: HA-tagged p300, overexpressed in HK2 cells (UniProt Q09472); assay: co-IP; HK2 cells overexpressing HA-tagged p300 and Flag-tagged PPM1K, with or without TGFβ; lysates (0.2% Triton X-100, 150 mM NaCl, 50 mM Tris HCl pH 7.4) rotated with HA-magnetic beads 24 h at 4 °C
[2] = target: p300 in HK2 cells (proximity ligation assay) (human (endogenous in HK2)) (UniProt Q09472); assay: proximity ligation; Duolink PLA with anti-p300 and anti-PPM1K antibodies on fixed, permeabilised HK2 cells, with or without TGFβ
[3] = target: p300 (histone acetyltransferase EP300), HA-tagged, in vitro translated (UniProt Q09472); assay: co-IP; screen of multiple phosphatases against p300 by in vitro transcription/translation (TNT T7 kit) and immunoprecipitation
[4] = target: p300, endogenous in mouse kidney tissue (mouse (endogenous in kidney tissue)) (UniProt B2RWS6); assay: proximity ligation; Duolink PLA with anti-p300 and anti-PPM1K antibodies on paraffin-embedded mouse kidney tissue, sham versus UUO

B1: Flag-tagged PPM1K, overexpressed in HK2 cells (enzyme, UniProt Q8N3J5 30-372)
chain: DDRRVTPTCHSSTSEPRCSRFDPDGSGSPATWDNFGIWDNRIDEPILLPPSIKYGKPIPKISLENVGCASQIGKRKENEDRFDFAQLTDEVLYFAVYDGHGGPAAADFCHTHMEKCIMDLLPKEKNLETLLTLAFLEIDKAFSSHARLSADATLLTSGTTATVALLRDGIELVVASVGDSRAILCRKGKPMKLTIDHTPERKDEKERIKKCGGFVAWNSLGQPHVNGRLAMTRSIGDLDLKTSGVIAEPETKRIKLHHADDSFLVLTTDGINFMVNSQEICDFVNQCHDPNEAAHAVTEQAIQYGTEDNSTAVVVPFGAWGKYKNSEINFSFSRSFASSGRWA
binding [1]: binds

B3: PPM1M, Flag-tagged, in vitro translated (enzyme, UniProt Q96MI6 1-459)
chain: MSAGWFRRRFLPGEPLPAPRPPGPHASPVPYRRPRFLRGSSSSPGAADASRRPDSRPVRSPARGRTLPWNAGYAEIINAEKSEFNEDQAACGKLCIRRCEFGAEEEWLTLCPEEFLTGHYWALFDGHGGPAAAILAANTLHSCLRRQLEAVVEGLVATQPPMHLNGRCICPSDPQFVEEKGIRAEDLVIGALESAFQECDEVIGRELEASGQMGGCTALVAVSLQGKLYMANAGDSRAILVRRDEIRPLSFEFTPETERQRIQQLAFVYPELLAGEFTRLEFPRRLKGDDLGQKVLFRDHHMSGWSYKRVEKSDLKYPLIHGQGRQARLLGTLAVSRGLGDHQLRVLDTNIQLKPFLLSVPQVTVLDVDQLELQEDDVVVMATDGLWDVLSNEQVAWLVRSFLPGNQEDPHRFSKLAQMLIHSTQGKEDSLTEEGQVSYDDVSVFVIPLHSQGQESSDH
binding [3]: binds

B4: PPM1K, endogenous in mouse kidney tissue (enzyme, UniProt Q8BXN7 30-372)
chain: DHRQATPACYFSTSEARCSRFDPDGSGQPATWDNFGIWDNRIDEPILLPPSIKYGKPIPKISLENVGCASLIGKRKENEDRFGFAQLTEEVLYFAVYDGHGGPAAADFCHTHMEKCVMDLLPREKDLETVLTLAFLEIDKAFASYAHLSADASLLTSGTTATVALLRDGVELVVASVGDSRALLCRKGKPMKLTTDHTPERKDEKERIKKFGGFVAWNSLGQPHVNGRLAMTRSIGDLDLKASGVIAEPETTRIKLYHADDSFLVLTTDGINFMVNSQEICDFVNQCHDPKEAAHSVTEQAIQYGTEDNSTAVVVPFGAWGKYKNSEITFSFSRSFASSGRWA
binding [4]: binds

B5: PPEF1, Flag-tagged, in vitro translated (enzyme, UniProt O14829 1-653)
chain: MGCSSSSTKTRRSDTSLRAALIIQNWYRGYKARLKARQHYALTIFQSIEYADEQGQMQLSTFFSFMLENYTHIHKEELELRNQSLESEQDMRDRWDYVDSIDVPDSYNGPRLQFPLTCTDIDLLLEAFKEQQILHAHYVLEVLFETKKVLKQMPNFTHIQTSPSKEVTICGDLHGKLDDLFLIFYKNGLPSERNPYVFNGDFVDRGKNSIEILMILCVSFLVYPNDLHLNRGNHEDFMMNLRYGFTKEILHKYKLHGKRILQILEEFYAWLPIGTIVDNEILVIHGGISETTDLNLLHRVERNKMKSVLIPPTETNRDHDTDSKHNKVGVTFNAHGRIKTNGSPTEHLTEHEWEQIIDILWSDPRGKNGCFPNTCRGGGCYFGPDVTSKILNKYQLKMLIRSHECKPEGYEICHDGKVVTIFSASNYYEEGSNRGAYIKLCSGTTPRFFQYQVTKATCFQPLRQRVDTMENSAIKILRERVISRKSDLTRAFQLQDHRKSGKLSVSQWAFCMENILGLNLPWRSLSSNLVNIDQNGNVEYMSSFQNIRIEKPVQEAHSTLVETLYRYRSDLEIIFNAIDTDHSGLISVEEFRAMWKLFSSHYNVHIDDSQVNKLANIMDLNKDGSIDFNEFLKAFYVVHRYEDLMKPDVTNLG
binding [3]: binds

More lines, now with the values ahead:

binding [2]: binds
B2: PPM1K in HK2 cells (proximity ligation assay) (enzyme, UniProt Q8N3J5 30-372)
chain: B1 chain

binding [3]: binds
B6: PPP6C, Flag-tagged, in vitro translated (enzyme, UniProt O00743 1-305)
chain: MAPLDLDKYVEIARLCKYLPENDLKRLCDYVCDLLLEESNVQPVSTPVTVCGDIHGQFYDLCELFRTGGQVPDTNYIFMGDFVDRGYYSLETFTYLLALKAKWPDRITLLRGNHESRQITQVYGFYDECQTKYGNANAWRYCTKVFDMLTVAALIDEQILCVHGGLSPDIKTLDQIRTIERNQEIPHKGAFCDLVWSDPEDVDTWAISPRGAGWLFGAKVTNEFVHINNLKLICRAHQLVHEGYKFMFDEKLVTVWSAPNYCYRCGNIASIMVFKDVNTREPKLFRAVPDSERVIPPRTTTPYFL

binding [3]: binds
B7: PPM1D, Flag-tagged, in vitro translated (enzyme, UniProt O15297 1-605)
chain: MAGLYSLGVSVFSDQGGRKYMEDVTQIVVEPEPTAEEKPSPRRSLSQPLPPRPSPAALPGGEVSGKGPAVAAREARDPLPDAGASPAPSRCCRRRSSVAFFAVCDGHGGREAAQFAREHLWGFIKKQKGFTSSEPAKVCAAIRKGFLACHLAMWKKLAEWPKTMTGLPSTSGTTASVVIIRGMKMYVAHVGDSGVVLGIQDDPKDDFVRAVEVTQDHKPELPKERERIEGLGGSVMNKSGVNRVVWKRPRLTHNGPVRRSTVIDQIPFLAVARALGDLWSYDFFSGEFVVSPEPDTSVHTLDPQKHKYIILGSDGLWNMIPPQDAISMCQDQEEKKYLMGEHGQSCAKMLVNRALGRWRQRMLRADNTSAIVICISPEVDNQGNFTNEDELYLNLTDSPSYNSQETCVMTPSPCSTPPVKSLEEDPWPRVNSKDHIPALVRSNAFSENFLEVSAEIARENVQGVVIPSKDPEPLEENCAKALTLRIHDSLNNSLPIGLVPTNSTNTVMDQKNLKMSTPGQMKAQEIERTPPTNFKRTLEESNSGPLMKKHRRNGLSRSSGAQPASLPTTSQRKNSVKLTMRRRLRGQKKIGNPLLHQHRKTVCVC

binding [3]: binds
B8: PPM1K, Flag-tagged, in vitro translated (enzyme, UniProt Q8N3J5 1-372)
chain: MSTAALITLVRSGGNQVRRRVLLSSRLLQDDRRVTPTCHSSTSEPRCSRFDPDGSGSPATWDNFGIWDNRIDEPILLPPSIKYGKPIPKISLENVGCASQIGKRKENEDRFDFAQLTDEVLYFAVYDGHGGPAAADFCHTHMEKCIMDLLPKEKNLETLLTLAFLEIDKAFSSHARLSADATLLTSGTTATVALLRDGIELVVASVGDSRAILCRKGKPMKLTIDHTPERKDEKERIKKCGGFVAWNSLGQPHVNGRLAMTRSIGDLDLKTSGVIAEPETKRIKLHHADDSFLVLTTDGINFMVNSQEICDFVNQCHDPNEAAHAVTEQAIQYGTEDNSTAVVVPFGAWGKYKNSEINFSFSRSFASSGRWA
